Results deposited as PubChem BioAssay AID1259254 (NCATS, 2017).
Screen: 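Finding genes that stop cells copying their DNA twice in one cycle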 (primary screen). Cells: human HCT116 colorectal cancer cells. Knock-down reagent: single siRNA against human genes. Timing: 3 days. Detection: 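Nuclei stained with Hoechst and imaged; cell-cycle phase assigned by DNA content; G2 share scaled per plate, non-targeting siRNA 0%, GMNN siRNA 100%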. Reading the numbers: G2 robust z-score and G2 cells, % of GMNN control: higher = more G2 cells, more excess DNA replication; raw share of cells in G2: higher = larger share of cells with G2 DNA content. Active means: 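Active siRNAs have a G2 robust z of 5 or more median absolute deviations over the median, which in these data means about 38% or higher of GMNN control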.
Shown is a random part of about 59,000 reagents. About 1,550 of all reagents (2.6%) were called active. 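G2 share is only a proxy for re-replication; each gene was hit by three separate siRNAs, and active genes were retested.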 Raw values are not corrected between plates. A number with no mark means an inactive call. Reagents against one gene are numbered here. No sequences are given here. Not stated in the record: the amount of reagent.

target	siRNA no.	G2 robust z-score	G2 cells, % of GMNN control	raw share of cells in G2 (%)
TENM1 (teneurin transmembrane protein 1)	1	0.139	3.94	7.11
TENM1 (teneurin transmembrane protein 1)	2	-0.511	-0.627	3.68
TENM1 (teneurin transmembrane protein 1)	3	0.167	4.14	4.91
OR4E2 (olfactory receptor family 4 subfamily E member 2)	1	0.441	6.07	5.42
OR4E2 (olfactory receptor family 4 subfamily E member 2)	2	1.03	10.2	8.26
OR4E2 (olfactory receptor family 4 subfamily E member 2)	3	-0.744	-2.27	2.96
TNKS2 (tankyrase 2)	1	0.968	9.78	8.41
TNKS2 (tankyrase 2)	2	0.00519	3	6.68
TNKS2 (tankyrase 2)	3	-0.198	1.58	4.76
HPCAL1 (hippocalcin like 1)	1	-0.134	2.02	4.26
HPCAL1 (hippocalcin like 1)	2	-0.247	1.23	5.42
HPCAL1 (hippocalcin like 1)	3	0.0576	3.37	4.33
MEGF8 (multiple EGF like domains 8)	1	0.314	5.17	7.12
MEGF8 (multiple EGF like domains 8)	2	-1.62	-8.42	2.06
MEGF8 (multiple EGF like domains 8)	3	-0.384	0.266	3.75
TIMCC (TIM double twin CX3C motif chaperone)	1	-0.956	-3.76	2.49
TIMCC (TIM double twin CX3C motif chaperone)	2	3.73	29.2	12.2
TIMCC (TIM double twin CX3C motif chaperone)	3	-0.729	-2.16	2.24
ZNF92 (zinc finger protein 92)	1	-0.932	-3.59	1.86
ZNF92 (zinc finger protein 92)	2	0.201	4.38	4.69
ZNF92 (zinc finger protein 92)	3	-0.403	0.134	3.57
NLN (neurolysin)	1	0.868	9.07	8.72
NLN (neurolysin)	2	1.6	14.3	9.95
NLN (neurolysin)	3	-0.0991	2.27	4.76
SPMIP8 (sperm microtubule inner protein 8)	1	1.86	16	9.49
SPMIP8 (sperm microtubule inner protein 8)	2	-0.634	-1.5	2.6
SPMIP8 (sperm microtubule inner protein 8)	3	1.34	12.4	9.18
EIF3H (eukaryotic translation initiation factor 3 subunit H)	1	-0.0662	2.5	4.36
EIF3H (eukaryotic translation initiation factor 3 subunit H)	2	-0.673	-1.77	5.2
EIF3H (eukaryotic translation initiation factor 3 subunit H)	3	-0.156	1.87	4.12
SOX9 (SRY-box transcription factor 9)	1	0.224	4.54	7.21
SOX9 (SRY-box transcription factor 9)	2	1.78	15.5	9.86
SOX9 (SRY-box transcription factor 9)	3	-0.366	0.391	4.09
CALHM1 (calcium homeostasis modulator 1)	1	-0.25	1.21	4.02
CALHM1 (calcium homeostasis modulator 1)	2	0.563	6.93	5.5
CALHM1 (calcium homeostasis modulator 1)	3	5.27 (active)	40.1	16
MRPL57 (mitochondrial ribosomal protein L57)	1	-0.523	-0.714	4.27
MRPL57 (mitochondrial ribosomal protein L57)	2	-0.189	1.64	5.34
MRPL57 (mitochondrial ribosomal protein L57)	3	1.13	10.9	5.58
RTL4 (retrotransposon Gag like 4)	1	-0.569	-1.03	3.63
RTL4 (retrotransposon Gag like 4)	2	0.259	4.79	5.35
RTL4 (retrotransposon Gag like 4)	3	0.649	7.53	7.22
NDC80 (NDC80 kinetochore complex component)	1	3.14	25.1	11.9
NDC80 (NDC80 kinetochore complex component)	2	4.61	35.4	21.8
NDC80 (NDC80 kinetochore complex component)	3	6.13 (active)	46.1	22.7
TAF1C	1	-0.0648	2.51	6.25
TAF1C	2	0.874	9.11	7.51
TAF1C	3	-0.75	-2.31	2.53
FMO1 (flavin containing dimethylaniline monoxygenase 1)	1	2.58	21.1	12.9
FMO1 (flavin containing dimethylaniline monoxygenase 1)	2	0.144	3.98	6.78
FMO1 (flavin containing dimethylaniline monoxygenase 1)	3	-0.553	-0.927	3.33
EBF1 (EBF transcription factor 1)	1	-1.23	-5.68	2.64
EBF1 (EBF transcription factor 1)	2	-0.0579	2.56	5.03
EBF1 (EBF transcription factor 1)	3	0.687	7.8	6.58
SLC12A8	1	0.733	8.12	8.81
SLC12A8	2	-1	-4.09	2.71
SLC12A8	3	-1.18	-5.36	2.8
ATXN10 (ataxin 10)	1	-0.409	0.0888	4.45
ATXN10 (ataxin 10)	2	4.52	34.8	19
ATXN10 (ataxin 10)	3	1.7	14.9	8.51
PTAFR (platelet activating factor receptor)	1	2.84	23	14.1
PTAFR (platelet activating factor receptor)	2	1.64	14.5	7.71
PTAFR (platelet activating factor receptor)	3	0.657	7.59	7.17
PRH2 (proline rich protein HaeIII subfamily 2)	1	-0.0174	2.84	6.18
PRH2 (proline rich protein HaeIII subfamily 2)	2	0.802	8.61	7.62
PRH2 (proline rich protein HaeIII subfamily 2)	3	1.22	11.6	7.54
SOX11 (SRY-box transcription factor 11)	1	4.49	34.6	17.3
SOX11 (SRY-box transcription factor 11)	2	-0.871	-3.16	3.46
SOX11 (SRY-box transcription factor 11)	3	0.581	7.05	6.29

4 entries from above in another layout:
| target | siRNA no. | G2 robust z-score | G2 cells, % of GMNN control | raw share of cells in G2 (%) |
| --- | --- | --- | --- | --- |
| MEGF8 (multiple EGF like domains 8) | 1 | 0.314 | 5.17 | 7.12 |
| MEGF8 (multiple EGF like domains 8) | 2 | -1.62 | -8.42 | 2.06 |
| MEGF8 (multiple EGF like domains 8) | 3 | -0.384 | 0.266 | 3.75 |
| TIMCC (TIM double twin CX3C motif chaperone) | 1 | -0.956 | -3.76 | 2.49 |
